No constants are given. Whether binding was seen depends on the method and setting. Some entries that bind do so weakly or less than the wild type.

The target in this assay is Fzd1 extracellular domain (ECD) (UniProt Q9UP38). The assay is described as follows: Octet interaction assay. In general terms: BLI is a label-free optical method that tracks binding on a fibre tip over time.

B1: R2M3 IgG (antibody, V domains shown, not shown: small tags and cut ends)
VH: EVQLVQSGAEVKKPGASVKVSCKASGYTFTSYGISWVRQAPGQGLEWMGWISAYNGNTNYAQKLQGRVTMTTDTSTSTAYMELRSLRSDDTAVYYCASSKEKATYYYGMDVWGQGTTVTVSS
VL: QAVVLQEPSLSVSPGGTVTLTCGLSSGSVSTNYYPSWYQQTPGQAPRTLIYYTNTRSSDVPERFSGSIVGNKAALTITGAQPDDESVYFCLLYLGRGIWVFGGGTKLTVLG
In the case of B1, the binding entry is recorded as “binds”.

These data come from patent publication US20200308287A1.
